Measured values reported in publication PMC7809827.
These are yes or no findings as the source states them, for the method shown. Binding seen in cells or lysates may run through a third protein. Some results given as binding are weak or reduced against the parent protein; the word gives no strength.

Protein sequences, listed by entry. Tags and fused reporters are not part of them.
UniProt P09382: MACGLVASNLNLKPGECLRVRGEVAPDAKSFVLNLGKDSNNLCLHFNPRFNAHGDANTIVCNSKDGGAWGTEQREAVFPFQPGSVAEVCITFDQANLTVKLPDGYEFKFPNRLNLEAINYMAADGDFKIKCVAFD

B1: fasciculation and elongation protein zeta 1 (FEZ1) (protein, UniProt Q99689 1-392)
chain: MEAPLVSLDEEFEDLRPSCSEDPEEKPQCFYGSSPHHLEDPSLSELENFSSEIISFKSMEDLVNEFDEKLNVCFRNYNAKTENLAPVKNQLQIQEEEETLQDEEVWDALTDNYIPSLSEDWRDPNIEALNGNCSDTEIHEKEEEEFNEKSENDSGINEEPLLTADQVIEEIEEMMQNSPDPEEEEEVLEEEDGGETSSQADSVLLQEMQALTQTFNNNWSYEGLRHMSGSELTELLDQVEGAIRDFSEELVQQLARRDELEFEKEVKNSFITVLIEVQNKQKEQRELMKKRRKEKGLSLQSSRIEKGNQMPLKRFSMEGISNILQSGIRQTFGSSGTDKQYLNTVIPYEKKASPPSVEDLQMLTNILFAMKEDNEKVPTLLTDYILKVLCPT

Target: T1, zinc finger protein 804A (ZNF804A) (human) (UniProt Q7Z570)
T1 sequence: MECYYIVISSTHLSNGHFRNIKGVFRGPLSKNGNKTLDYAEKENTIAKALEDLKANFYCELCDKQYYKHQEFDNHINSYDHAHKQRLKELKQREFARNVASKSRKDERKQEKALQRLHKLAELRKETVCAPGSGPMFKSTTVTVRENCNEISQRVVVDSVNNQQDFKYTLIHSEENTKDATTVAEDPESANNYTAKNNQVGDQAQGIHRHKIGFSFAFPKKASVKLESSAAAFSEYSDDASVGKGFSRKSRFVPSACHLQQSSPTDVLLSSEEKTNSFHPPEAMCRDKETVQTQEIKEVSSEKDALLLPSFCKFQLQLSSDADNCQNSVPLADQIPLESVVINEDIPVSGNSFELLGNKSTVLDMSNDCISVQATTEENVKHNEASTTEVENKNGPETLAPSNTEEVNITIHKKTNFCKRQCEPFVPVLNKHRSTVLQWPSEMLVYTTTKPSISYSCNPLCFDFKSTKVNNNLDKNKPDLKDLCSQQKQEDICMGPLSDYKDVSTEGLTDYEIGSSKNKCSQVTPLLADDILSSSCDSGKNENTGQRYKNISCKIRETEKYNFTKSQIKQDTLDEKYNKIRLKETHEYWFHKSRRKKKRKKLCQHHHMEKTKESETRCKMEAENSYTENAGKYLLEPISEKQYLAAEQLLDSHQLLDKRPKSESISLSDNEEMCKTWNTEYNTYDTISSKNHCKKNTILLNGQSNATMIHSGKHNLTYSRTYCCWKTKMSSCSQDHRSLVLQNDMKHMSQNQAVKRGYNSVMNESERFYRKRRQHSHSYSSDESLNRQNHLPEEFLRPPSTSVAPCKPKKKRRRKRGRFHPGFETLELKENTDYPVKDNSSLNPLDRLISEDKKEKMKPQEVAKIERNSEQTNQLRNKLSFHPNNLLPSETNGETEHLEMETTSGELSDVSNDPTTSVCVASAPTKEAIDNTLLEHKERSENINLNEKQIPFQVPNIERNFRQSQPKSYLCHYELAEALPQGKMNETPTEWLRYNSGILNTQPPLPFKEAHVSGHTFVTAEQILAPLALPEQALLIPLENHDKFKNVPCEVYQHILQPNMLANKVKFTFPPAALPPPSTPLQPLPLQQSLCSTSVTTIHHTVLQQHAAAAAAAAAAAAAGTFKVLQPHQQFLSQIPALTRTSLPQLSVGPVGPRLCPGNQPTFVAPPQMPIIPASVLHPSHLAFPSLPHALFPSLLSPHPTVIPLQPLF
Test: co-IP; co-immunoprecipitation (Fig. 2a); cells, antibodies and conditions not told in the text shown

binding	Molecule
binds	galectin 1 (LGALS1) (from UniProt P09382 1-135)
binds	B1
